Data as given in publication PMC6721388.
These are yes or no findings as the source states them, for the method shown. Binding seen in cells or lysates may run through a third protein. Some entries that bind do so weakly or less than the wild type. Blank lines part the entries; values can stand above or below the substance they belong to.

Sequences of proteins named here, by UniProt entry; tags and fusion partners are left off.
UniProt O43524: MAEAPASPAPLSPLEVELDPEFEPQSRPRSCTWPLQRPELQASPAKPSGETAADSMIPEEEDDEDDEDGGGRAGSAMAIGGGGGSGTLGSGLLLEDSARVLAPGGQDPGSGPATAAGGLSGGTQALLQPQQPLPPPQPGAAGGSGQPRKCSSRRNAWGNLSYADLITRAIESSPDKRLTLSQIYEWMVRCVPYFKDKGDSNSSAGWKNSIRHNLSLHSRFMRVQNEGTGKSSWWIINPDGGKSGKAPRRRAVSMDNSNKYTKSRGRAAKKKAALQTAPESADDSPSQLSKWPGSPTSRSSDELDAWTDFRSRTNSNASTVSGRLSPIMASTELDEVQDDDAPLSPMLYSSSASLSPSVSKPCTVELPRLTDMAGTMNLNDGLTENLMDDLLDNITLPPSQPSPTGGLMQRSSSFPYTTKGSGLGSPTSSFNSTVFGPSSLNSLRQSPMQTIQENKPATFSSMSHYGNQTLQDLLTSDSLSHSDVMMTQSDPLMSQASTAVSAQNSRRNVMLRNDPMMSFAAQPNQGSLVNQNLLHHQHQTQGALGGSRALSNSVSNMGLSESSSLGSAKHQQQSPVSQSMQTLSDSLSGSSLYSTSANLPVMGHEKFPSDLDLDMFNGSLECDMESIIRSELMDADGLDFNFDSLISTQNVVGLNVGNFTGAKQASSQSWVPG
UniProt Q09472: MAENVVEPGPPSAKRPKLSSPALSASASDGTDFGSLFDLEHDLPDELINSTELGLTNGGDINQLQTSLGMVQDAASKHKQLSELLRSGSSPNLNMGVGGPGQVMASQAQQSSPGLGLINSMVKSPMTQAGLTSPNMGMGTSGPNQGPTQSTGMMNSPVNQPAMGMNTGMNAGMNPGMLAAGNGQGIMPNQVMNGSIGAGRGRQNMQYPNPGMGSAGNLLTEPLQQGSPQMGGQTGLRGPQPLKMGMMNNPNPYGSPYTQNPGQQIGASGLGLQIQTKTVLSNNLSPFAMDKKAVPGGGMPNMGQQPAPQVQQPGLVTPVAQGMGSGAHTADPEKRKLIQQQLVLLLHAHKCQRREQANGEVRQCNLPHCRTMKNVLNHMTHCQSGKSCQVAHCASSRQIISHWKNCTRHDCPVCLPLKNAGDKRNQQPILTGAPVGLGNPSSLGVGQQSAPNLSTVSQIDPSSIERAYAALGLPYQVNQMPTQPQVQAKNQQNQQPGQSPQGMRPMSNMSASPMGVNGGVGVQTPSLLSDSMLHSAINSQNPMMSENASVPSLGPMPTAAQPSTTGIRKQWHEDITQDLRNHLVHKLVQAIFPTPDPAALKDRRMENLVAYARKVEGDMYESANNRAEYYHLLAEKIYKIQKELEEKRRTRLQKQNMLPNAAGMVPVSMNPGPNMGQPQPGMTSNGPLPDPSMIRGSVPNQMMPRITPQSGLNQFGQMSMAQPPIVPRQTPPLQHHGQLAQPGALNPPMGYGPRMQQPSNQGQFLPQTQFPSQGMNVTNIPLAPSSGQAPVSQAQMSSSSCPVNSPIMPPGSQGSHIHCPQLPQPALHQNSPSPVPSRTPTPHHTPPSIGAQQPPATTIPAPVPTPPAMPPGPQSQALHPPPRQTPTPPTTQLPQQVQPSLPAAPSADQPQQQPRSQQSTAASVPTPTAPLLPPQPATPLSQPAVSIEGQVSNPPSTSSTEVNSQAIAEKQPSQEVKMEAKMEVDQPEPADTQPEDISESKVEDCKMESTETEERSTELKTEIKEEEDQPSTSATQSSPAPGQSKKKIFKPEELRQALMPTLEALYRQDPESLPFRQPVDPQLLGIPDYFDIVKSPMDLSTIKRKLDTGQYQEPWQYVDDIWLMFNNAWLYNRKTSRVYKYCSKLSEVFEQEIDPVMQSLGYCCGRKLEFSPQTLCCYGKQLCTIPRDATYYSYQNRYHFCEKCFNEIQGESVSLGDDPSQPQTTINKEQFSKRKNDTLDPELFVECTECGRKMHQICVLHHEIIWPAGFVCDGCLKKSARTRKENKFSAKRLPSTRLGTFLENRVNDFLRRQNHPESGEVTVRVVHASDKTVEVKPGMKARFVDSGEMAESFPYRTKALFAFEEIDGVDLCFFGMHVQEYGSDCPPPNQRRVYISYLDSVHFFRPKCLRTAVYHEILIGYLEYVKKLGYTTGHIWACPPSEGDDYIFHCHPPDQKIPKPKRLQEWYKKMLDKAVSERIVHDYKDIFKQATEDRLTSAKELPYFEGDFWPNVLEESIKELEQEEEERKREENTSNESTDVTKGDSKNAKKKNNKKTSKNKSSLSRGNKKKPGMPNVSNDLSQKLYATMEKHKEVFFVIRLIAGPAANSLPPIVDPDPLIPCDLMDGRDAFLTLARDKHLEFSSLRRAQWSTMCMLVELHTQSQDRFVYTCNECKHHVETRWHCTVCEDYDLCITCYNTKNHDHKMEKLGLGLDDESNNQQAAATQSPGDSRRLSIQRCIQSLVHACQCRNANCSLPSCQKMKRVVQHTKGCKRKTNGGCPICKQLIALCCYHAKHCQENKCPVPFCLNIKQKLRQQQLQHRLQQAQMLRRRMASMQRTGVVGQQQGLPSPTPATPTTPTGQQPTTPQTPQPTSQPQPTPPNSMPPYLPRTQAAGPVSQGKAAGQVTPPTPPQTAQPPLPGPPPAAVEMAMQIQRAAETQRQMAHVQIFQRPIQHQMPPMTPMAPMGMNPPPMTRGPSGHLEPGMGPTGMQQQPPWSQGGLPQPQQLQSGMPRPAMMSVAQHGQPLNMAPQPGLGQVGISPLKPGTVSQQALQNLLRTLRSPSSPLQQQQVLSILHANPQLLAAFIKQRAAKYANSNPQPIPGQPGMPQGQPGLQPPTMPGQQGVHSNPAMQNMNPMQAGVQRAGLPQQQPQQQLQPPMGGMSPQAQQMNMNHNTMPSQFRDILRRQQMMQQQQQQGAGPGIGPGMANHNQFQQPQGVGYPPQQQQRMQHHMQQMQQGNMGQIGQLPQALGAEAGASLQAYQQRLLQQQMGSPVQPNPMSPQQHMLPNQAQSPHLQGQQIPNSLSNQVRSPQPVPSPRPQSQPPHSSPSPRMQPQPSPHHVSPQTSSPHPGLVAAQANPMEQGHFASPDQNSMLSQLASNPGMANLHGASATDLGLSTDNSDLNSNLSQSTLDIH

Experiments:
[1] = molecular target: Forkhead Box O3 (FOXO3) (human (endogenous in BT474)) (UniProt O43524); assay: condition: only in lapatinib-resistant BT474-LapR cells; proximity ligation; Duolink in situ PLA with EP300 and FOXO3 antibodies in lapatinib-resistant BT474-LapR cells treated with 1 µM lapatinib for 0, 4 and 8 h; confocal microscopy
[2] = molecular target: Forkhead Box O3 (FOXO3) (human (endogenous in BT474)) (UniProt O43524); assay: proximity ligation; Duolink in situ PLA with EP300 and FOXO3 antibodies in BT474 cells treated with 1 µM lapatinib for 0, 4 and 8 h; confocal microscopy
[3] = molecular target: wild-type EP300 (pcDNA3.1-p300) (human) (UniProt Q09472); assay: co-IP; lysates of BT474 cells transiently transfected with EP300 or EP300 HAT mutant; IP with anti-EP300 antibody, blot for FOXO3 (Figure 4B, lower panel)
[4] = molecular target: Forkhead Box O3 (FOXO3) (human (endogenous in BT474)) (UniProt O43524); assay: co-IP; lysates of BT474 cells transiently transfected with EP300 or EP300 HAT mutant; IP with anti-FOXO3 antibody, blot for EP300 (Figure 4B, upper panel); IP lysis buffer 1% NP-40, 150 mM NaCl, 50 mM Tris-HCl pH 7.4, 5 mM EDTA; 4 °C overnight

binding [1]: no binding
binding [2]: binds
Substance: EP300 (from UniProt Q09472 1-2414) (enzyme)

binding [3]: binds
Substance: Forkhead Box O3 (FOXO3) (from UniProt O43524 1-673)

binding [4]: binds
Substance: wild-type EP300 (pcDNA3.1-p300) (from UniProt Q09472 1-2414) (enzyme)
